## Primary screen of a compound library

Chains of the proteins cited; added tags and fusions are not shown.
UniProt P9WFT3, whole entry: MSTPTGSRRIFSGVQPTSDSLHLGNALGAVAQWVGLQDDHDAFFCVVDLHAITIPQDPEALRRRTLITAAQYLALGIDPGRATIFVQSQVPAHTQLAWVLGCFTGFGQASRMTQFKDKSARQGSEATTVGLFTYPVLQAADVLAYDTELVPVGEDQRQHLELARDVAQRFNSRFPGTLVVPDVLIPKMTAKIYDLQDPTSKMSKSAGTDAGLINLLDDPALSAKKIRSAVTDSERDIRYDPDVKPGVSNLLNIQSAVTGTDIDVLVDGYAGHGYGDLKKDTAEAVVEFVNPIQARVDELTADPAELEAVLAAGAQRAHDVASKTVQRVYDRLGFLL
UniProt I6X8D2, whole entry: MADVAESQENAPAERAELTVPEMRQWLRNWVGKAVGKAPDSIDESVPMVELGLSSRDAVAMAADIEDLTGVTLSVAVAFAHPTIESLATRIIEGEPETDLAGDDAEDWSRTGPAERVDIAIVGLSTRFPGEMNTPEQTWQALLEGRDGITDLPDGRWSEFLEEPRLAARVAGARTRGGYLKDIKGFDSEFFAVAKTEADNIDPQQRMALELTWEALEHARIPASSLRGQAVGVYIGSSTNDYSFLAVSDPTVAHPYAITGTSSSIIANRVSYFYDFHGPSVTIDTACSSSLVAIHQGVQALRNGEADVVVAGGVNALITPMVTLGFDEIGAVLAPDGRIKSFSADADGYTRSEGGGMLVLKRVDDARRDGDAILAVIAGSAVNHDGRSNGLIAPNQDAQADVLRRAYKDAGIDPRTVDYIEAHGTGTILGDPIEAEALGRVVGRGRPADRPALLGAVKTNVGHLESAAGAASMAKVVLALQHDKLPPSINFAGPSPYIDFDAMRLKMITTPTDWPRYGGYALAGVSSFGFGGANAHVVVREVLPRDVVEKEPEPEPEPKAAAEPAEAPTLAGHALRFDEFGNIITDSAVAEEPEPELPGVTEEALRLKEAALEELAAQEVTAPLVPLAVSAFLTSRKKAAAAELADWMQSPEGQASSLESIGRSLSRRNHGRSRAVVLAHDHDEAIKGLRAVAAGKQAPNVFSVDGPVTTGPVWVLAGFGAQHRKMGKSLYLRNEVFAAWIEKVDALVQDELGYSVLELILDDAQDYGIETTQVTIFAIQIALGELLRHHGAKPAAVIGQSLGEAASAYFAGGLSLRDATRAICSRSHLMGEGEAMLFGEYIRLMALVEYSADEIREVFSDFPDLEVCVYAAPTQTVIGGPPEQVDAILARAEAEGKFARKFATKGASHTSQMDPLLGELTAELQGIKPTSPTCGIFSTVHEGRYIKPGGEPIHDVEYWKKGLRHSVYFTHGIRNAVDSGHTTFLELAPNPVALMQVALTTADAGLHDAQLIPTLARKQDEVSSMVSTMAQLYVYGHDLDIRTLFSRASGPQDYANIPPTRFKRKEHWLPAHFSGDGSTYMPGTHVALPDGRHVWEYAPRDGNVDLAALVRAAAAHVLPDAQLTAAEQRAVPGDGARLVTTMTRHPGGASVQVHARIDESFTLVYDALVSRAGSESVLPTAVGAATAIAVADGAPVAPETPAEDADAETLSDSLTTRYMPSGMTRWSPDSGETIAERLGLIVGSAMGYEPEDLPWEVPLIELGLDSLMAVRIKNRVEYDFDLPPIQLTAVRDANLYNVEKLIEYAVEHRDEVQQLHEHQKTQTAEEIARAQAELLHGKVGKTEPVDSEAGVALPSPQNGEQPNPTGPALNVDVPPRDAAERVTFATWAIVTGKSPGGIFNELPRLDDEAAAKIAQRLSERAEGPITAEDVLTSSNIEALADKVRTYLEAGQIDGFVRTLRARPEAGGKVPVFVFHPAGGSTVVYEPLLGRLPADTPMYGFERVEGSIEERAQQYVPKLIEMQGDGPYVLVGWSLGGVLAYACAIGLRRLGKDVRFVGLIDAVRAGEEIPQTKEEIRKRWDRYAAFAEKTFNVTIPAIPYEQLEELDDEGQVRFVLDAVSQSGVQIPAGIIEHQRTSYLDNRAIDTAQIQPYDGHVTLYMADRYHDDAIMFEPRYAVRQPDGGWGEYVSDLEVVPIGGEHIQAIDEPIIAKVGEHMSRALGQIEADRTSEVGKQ
UniProt P9WNZ1, whole entry: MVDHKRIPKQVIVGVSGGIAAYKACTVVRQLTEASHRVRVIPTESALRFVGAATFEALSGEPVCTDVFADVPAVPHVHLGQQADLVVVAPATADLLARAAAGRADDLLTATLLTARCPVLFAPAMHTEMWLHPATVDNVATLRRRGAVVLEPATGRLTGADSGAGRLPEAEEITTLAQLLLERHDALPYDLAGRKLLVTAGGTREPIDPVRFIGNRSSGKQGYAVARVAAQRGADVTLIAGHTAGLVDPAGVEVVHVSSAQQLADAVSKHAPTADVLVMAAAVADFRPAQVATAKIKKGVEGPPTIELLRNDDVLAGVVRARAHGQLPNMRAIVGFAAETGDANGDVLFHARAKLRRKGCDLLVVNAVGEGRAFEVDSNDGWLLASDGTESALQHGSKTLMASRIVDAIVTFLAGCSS

MtTrpRS: 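Tryptophan-tRNA ligase, Mycobacterium tuberculosis (UniProt P9WFT3). Enzyme assay of tryptophanyl-tRNA synthetase; the read-out is not stated. Compounds at 10 µM. Higher most likely means stronger inhibition; the record gives no direction and few retests gave an IC50. Size under these conditions: about 65,000 compounds, about 64 of them at 50% or above in at least one test.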
Pks13 thioesterase: 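Polyketide synthase Pks13, Mycobacterium tuberculosis (UniProt I6X8D2). Enzyme assay of the thioesterase domain of polyketide synthase 13; the read-out is not stated. Compounds at 30 µM. The record gives no direction; the compounds picked for IC50 retests had high values, so higher reads as stronger inhibition. Size under these conditions: about 67,000 compounds, about 300 of them at 50% or above in at least one test.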
CoaBC: 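Coenzyme A biosynthesis protein CoaBC, Mycobacterium tuberculosis (UniProt P9WNZ1). Enzyme assay of CoaBC with a phosphate dye (Biomol Green) read at 650 nm. Tested at 30 µM. Direction is inferred from only a few compounds that gave an IC50; most scored high, so higher reads as stronger inhibition. Most strong results did not repeat in a second test. Of about 67,000 compounds tested this way, about 40 (0.06%) reached 50% or more in at least one test.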

Results are given as percent effect. The controls that fix the scale are not given in the record; negative values are as filed. The compounds are a random part of those screened.

For COc1ccc(CNc2ncnc3c2NC(=O)CN3)cc1 the result was MtTrpRS: -1.643%; Pks13 thioesterase: -0.2408%; CoaBC: 1.636%.
For CN(C)CCN1C[C@@H]2CN(S(=O)(=O)c3ccccc3)C[C@@H]2C1=O the result was Pks13 thioesterase: 2.6%; CoaBC: 1.481%.
For Cc1ncc2c(n1)CCCC2NC(=O)c1ccncc1 (centres unmarked) the result was MtTrpRS: -1.574%; Pks13 thioesterase: -1.039%; CoaBC: -7.727%.
For Cn1cc(CN2CCC3(CC2)NC(=O)CC3c2ccncc2)cn1 (centres unmarked) the result was MtTrpRS: 0.8718%; Pks13 thioesterase: -11.54%; CoaBC: 5.042%.
For O=C(c1cc2c([nH]c1=O)CCC2)N1CCCC1c1ccccn1 (centres unmarked) the result was MtTrpRS: 0%; Pks13 thioesterase: 14.28%; CoaBC: 0.6048%.
For Cc1cc(-c2ccc(C(=O)O)cc2)nc(C2CCCN(C(C)C)C2)n1 (centres unmarked) the result was MtTrpRS: -0.4167%; Pks13 thioesterase: -23.44%; CoaBC: 5.105%.
For CC(C)N1CC(C(=O)N2CCC(Oc3ccccc3Cl)CC2)CC1=O (centres unmarked) the result was MtTrpRS: -4.175%; Pks13 thioesterase: -10.33%; CoaBC: 1.333%.
For Cn1cc(C(=O)N2CCCC2c2[nH]ncc2C(N)=O)cn1 (centres unmarked) the result was MtTrpRS: -2.609%; Pks13 thioesterase: 2.61%; CoaBC: 1.46%.
For Cc1ccc(CCCC(=O)N2CCC(=O)Nc3cccnc32)s1 the result was MtTrpRS: -3.849%; Pks13 thioesterase: 2.608%; CoaBC: 4.38%.
For CCn1cnnc1CNC(=O)NCC(c1cccs1)N1CCCC1 (centres unmarked) the result was MtTrpRS: 1.679%; Pks13 thioesterase: -5.308%; CoaBC: 0.4819%.
For Cc1cccc(-c2nc(N)nc3c2CN(C(=O)c2cc(C)n[nH]2)C3C)c1 (centres unmarked) the result was MtTrpRS: 2.156%; Pks13 thioesterase: -71.08%; CoaBC: 4.245%.
For CC(Nc1ccn(CCS(C)(=O)=O)n1)c1ccc(C#N)cc1 (centres unmarked) the result was MtTrpRS: -1.445%; Pks13 thioesterase: -21.52%; CoaBC: -6.522%.
For CCOCC(O)CN1CCN(C(=O)c2ccsc2)CC1 (centres unmarked) the result was MtTrpRS: -3.439%; Pks13 thioesterase: -11.28%; CoaBC: -1.603%.
For COc1ccccc1CC1CCN(C(=O)CCN2CCOC2=O)CC1 the result was MtTrpRS: -1.141%; Pks13 thioesterase: -4.298%; CoaBC: 2.161%.
For Cc1oncc1C(=O)NCC(c1ccccc1Cl)N1CCOCC1 (centres unmarked) the result was MtTrpRS: -5.026%; Pks13 thioesterase: 15.58%; CoaBC: 4.808%.
For CCn1ccnc1CN1CCN(c2ncnc3ccsc23)CC1 the result was MtTrpRS: -1.19%; Pks13 thioesterase: -20.18%; CoaBC: 9.091%.
For O=c1c(Cc2ccc(Cl)cc2Cl)c(O)ccn1CC1CC1 the result was MtTrpRS: -1.144%; Pks13 thioesterase: -16.84%; CoaBC: -0.4603%.
For CC(C)=CCN1C(=O)[C@H]2CC[C@@H]1CN(c1ncccn1)C2 the result was MtTrpRS: -0.4575%; Pks13 thioesterase: -13.4%; CoaBC: 2.545%.
For CCc1nnc2n1CCN(Cc1csc(-c3ccccc3F)n1)C2 the result was MtTrpRS: 0.4617%; Pks13 thioesterase: -32.09%; CoaBC: -5.72%.
For CN(CC1COc2ccccc2O1)C(=O)NCCCn1cccn1 (centres unmarked) the result was MtTrpRS: -4.834%; Pks13 thioesterase: -16.99%; CoaBC: 3.422%.
For CCN(Cc1nc2c(cnn2C)c(=O)[nH]1)c1cccc(C)c1C the result was MtTrpRS: -1.874%; Pks13 thioesterase: -4.058%; CoaBC: 2.593%.
For CCCC1(NC(=O)C(c2ccccc2C)N(C)C)CC1 (centres unmarked) the result was MtTrpRS: -0.09311%; Pks13 thioesterase: -33.47%; CoaBC: 0.6036%.

Once more, the final 2:

{"smiles": "CCN(Cc1nc2c(cnn2C)c(=O)[nH]1)c1cccc(C)c1C", "MtTrpRS": -1.874, "Pks13 thioesterase": -4.058, "CoaBC": 2.593}
{"smiles": "CCCC1(NC(=O)C(c2ccccc2C)N(C)C)CC1", "stereo": "centres unmarked", "MtTrpRS": -0.09311, "Pks13 thioesterase": -33.47, "CoaBC": 0.6036}

Source: ChEMBL document CHEMBL3988442, “University of Dundee, Small-Polar-MMV Screening Library” (2021).